# Results of single-concentration screens

By UniProt entry, the sequences of proteins in these tests, tags left out. Residues count along the entry.
UniProt I6X8D2, whole entry: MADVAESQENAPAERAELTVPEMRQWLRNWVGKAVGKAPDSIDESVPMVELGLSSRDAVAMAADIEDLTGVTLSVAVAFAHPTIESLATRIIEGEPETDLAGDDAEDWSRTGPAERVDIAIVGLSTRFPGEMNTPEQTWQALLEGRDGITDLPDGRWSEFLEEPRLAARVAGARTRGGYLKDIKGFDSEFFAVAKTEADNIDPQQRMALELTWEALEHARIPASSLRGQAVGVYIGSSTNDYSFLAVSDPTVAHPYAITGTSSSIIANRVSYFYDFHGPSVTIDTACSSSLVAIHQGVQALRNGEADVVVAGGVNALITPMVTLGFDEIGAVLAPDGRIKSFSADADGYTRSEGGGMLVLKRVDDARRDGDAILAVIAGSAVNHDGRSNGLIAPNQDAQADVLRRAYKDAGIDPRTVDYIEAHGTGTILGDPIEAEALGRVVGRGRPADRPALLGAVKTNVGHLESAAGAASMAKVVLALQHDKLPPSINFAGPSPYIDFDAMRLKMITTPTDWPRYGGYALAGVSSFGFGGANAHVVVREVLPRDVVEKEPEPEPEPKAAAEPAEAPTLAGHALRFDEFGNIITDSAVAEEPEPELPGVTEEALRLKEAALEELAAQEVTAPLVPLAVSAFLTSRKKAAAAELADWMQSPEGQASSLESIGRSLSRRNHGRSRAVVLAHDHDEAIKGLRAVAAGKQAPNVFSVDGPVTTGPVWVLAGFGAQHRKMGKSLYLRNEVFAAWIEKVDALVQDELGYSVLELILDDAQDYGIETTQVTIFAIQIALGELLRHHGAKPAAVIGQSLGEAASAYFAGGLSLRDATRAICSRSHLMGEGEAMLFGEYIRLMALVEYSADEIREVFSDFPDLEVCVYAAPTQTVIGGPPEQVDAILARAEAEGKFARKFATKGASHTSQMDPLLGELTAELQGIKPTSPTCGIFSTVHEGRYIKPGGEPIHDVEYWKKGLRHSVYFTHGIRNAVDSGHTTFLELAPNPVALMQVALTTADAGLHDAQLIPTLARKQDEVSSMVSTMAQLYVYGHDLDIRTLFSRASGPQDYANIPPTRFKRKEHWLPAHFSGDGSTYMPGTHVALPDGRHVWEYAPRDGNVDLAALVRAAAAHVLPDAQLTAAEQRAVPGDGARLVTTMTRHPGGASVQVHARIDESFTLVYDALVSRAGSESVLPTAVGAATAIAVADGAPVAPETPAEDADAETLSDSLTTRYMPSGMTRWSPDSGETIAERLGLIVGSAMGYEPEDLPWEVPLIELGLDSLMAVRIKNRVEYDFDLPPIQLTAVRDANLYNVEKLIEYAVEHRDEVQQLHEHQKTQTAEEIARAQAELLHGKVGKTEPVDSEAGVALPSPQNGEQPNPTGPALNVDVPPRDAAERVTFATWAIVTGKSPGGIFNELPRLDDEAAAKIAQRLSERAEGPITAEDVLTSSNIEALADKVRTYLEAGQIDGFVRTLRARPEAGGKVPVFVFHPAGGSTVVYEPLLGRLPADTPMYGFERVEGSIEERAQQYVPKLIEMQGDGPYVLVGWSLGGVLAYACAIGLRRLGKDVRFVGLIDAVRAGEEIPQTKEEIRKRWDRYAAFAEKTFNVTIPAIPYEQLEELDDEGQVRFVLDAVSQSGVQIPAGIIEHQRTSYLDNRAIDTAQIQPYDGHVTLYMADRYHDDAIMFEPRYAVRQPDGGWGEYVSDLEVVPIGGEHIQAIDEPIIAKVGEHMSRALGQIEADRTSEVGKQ
UniProt A4I591, 1-473: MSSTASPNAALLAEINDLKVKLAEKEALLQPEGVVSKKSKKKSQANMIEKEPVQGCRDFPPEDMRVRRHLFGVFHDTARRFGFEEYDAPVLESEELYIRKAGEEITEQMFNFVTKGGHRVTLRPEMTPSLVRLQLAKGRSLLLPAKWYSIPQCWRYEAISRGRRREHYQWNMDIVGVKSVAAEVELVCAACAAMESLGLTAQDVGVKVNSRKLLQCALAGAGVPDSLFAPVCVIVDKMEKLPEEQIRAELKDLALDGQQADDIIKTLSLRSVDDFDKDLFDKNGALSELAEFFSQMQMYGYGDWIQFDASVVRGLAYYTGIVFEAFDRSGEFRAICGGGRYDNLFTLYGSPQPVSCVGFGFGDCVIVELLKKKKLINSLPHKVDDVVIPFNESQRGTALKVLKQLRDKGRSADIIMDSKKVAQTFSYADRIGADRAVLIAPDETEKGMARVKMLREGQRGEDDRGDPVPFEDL

Data taken from ChEMBL document CHEMBL3988442, “University of Dundee, Small-Polar-MMV Screening Library” (2021).

Pks13 thioesterase: 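Polyketide synthase Pks13, Mycobacterium tuberculosis (UniProt I6X8D2). Enzyme assay of the thioesterase domain of polyketide synthase 13; the read-out is not stated. Tested at 30 µM. The record gives no direction; the compounds picked for IC50 retests had high values, so higher reads as stronger inhibition. About 67,000 compounds were tested under these conditions; 0.46% (about 300) showed 50% or more at least once.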
LiHisRS: 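Enzyme assay of histidyl-tRNA synthetase; the read-out is not stated. Target: Histidine-tRNA ligase, Leishmania infantum (UniProt A4I591). Compounds at 30 µM. Higher reads as stronger inhibition (inferred: compounds with an IC50 in retests scored well above the rest). The assay is labelled LdHisRS but filed under L. infantum. Of about 69,000 compounds tested this way, about 410 (0.6%) reached 50% or more in at least one test.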

The filed quantity is “Percent Effect” (%). The record does not define 0% and 100%; most values in the screen are far below 50% and negative numbers occur (in some assays of this library far below -100). This is an unselected part of the compounds tested. A dash means the value is not listed here; it may have been measured.

structure,Pks13 thioesterase,LiHisRS
CC(=O)NC1CCCN(c2nc3ccccc3cc2CO)C1 (configuration not stated),9.172,20
CCn1ncc(C(=O)NCCc2nc(-c3cccnc3)n[nH]2)c1C,-0.4477,7.092
CC(C)C(=O)N1CCCC1C(=O)Nc1ccc(F)c(F)c1 (configuration not stated),-17.86,4.082
CCS(=O)(=O)N1CC[C@H](OC)[C@H]2CN(Cc3ccncc3)C[C@H]21,-22.18,16.24
CCc1nnc(Nc2cccc(C3CCCN(CC(C)(C)C)C3)n2)s1 (configuration not stated),5.37,16
O=C(COc1ccc(F)cc1F)N1CCOCC(O)(CN2CCCC2)C1 (configuration not stated),-23.33,-17.7
Cc1cc(CN(C)C(=O)Nc2ccccc2C)no1,-19.85,-11.67
Cc1cncnc1C1CCN(CCO)CC1,11.43,9.859
O=S(=O)(c1cccs1)N1CCCn2nnc(CN3CCCCC3)c2C1,-2.953,32.08
O=C(c1ccccc1)N1CCC2(CC1)CC(Oc1ccccc1)CO2 (configuration not stated),-42.41,24.32
CCc1nc(CSc2nnc(N)n2C2CC2)no1,3.476,9.302
O=C(NCc1cccnc1N1CCCC(O)C1)c1ccc2[nH]nnc2c1 (configuration not stated),-41.18,10.84
Cc1ccc(N2CCO[C@H]3CN(Cc4ccccn4)C[C@H]32)nn1,-7.531,5.882
O=C(c1ccc(NCc2ccco2)nc1)N1CCc2ccccc21,-10.18,-57.53
CC(C)N1CCC(NC(=O)NCCC(=O)NCc2ccccc2)C1 (configuration not stated),34.17,-3.175
COCc1nc(C(=O)N2CCCC2c2ccc(OC)cc2)cs1 (configuration not stated),76.49,18.26
Cc1ccccc1-n1cc(C2=CCN(CCN3CCOCC3)CC2)cn1,9.637,8.333
COc1cc(OC)cc(C2NC(=O)CN2Cc2ccc(Br)cc2)c1 (configuration not stated),-4.093,14.29
CC(C)CN(CC(O)c1ccccc1)C(=O)Nc1nccs1 (configuration not stated),-20.05,20.41
CC(C)C(=O)N1CCC(c2c(C(N)=O)sc3ccccc23)C1 (configuration not stated),-,14.29
Cc1[nH]c2ccc(CNc3cc(C(=O)NC(C)C)ccn3)cc2c1C,-18.56,18.03
CCN1C[C@H]2CCN(C(=O)NC3CCCC3)CC[C@H]2S1(=O)=O,-17.78,5.825
Cn1cc(Br)cc(NC(=O)CC(C)(C)C)c1=O,-1.365,95
CC(Cc1c(F)cccc1F)NC(=O)CSCC(N)=O (configuration not stated),-15.85,0
Cn1cc(C(=O)N[C@@H]2CN(Cc3cccs3)[C@@H]3CCCO[C@@H]32)cn1,-6.818,15.09
Cc1cc(CN(C)C2CCCN(c3cccnn3)C2)on1 (configuration not stated),-4.942,24.27
CCn1cc(CN2CCCN(C(=O)c3ccoc3)CC2)cn1,-17.92,6.195
CC(C)CNC(=O)CNc1c(NCc2ccccn2)c(=O)c1=O,0.8719,10
CCCN1CCC(CC(=O)NCc2cc(O)ncn2)CC1,-11.19,13.73
Nc1nnc(CCCNc2ncnc3c2CCN(C(=O)C2CC2)C3)s1,-26.42,23.33
N#Cc1c(N2CCOCC2)nsc1-c1cccnc1,-30.53,20.35
CC(=O)N1CCN(c2cc(C3CCNCC3)ccn2)CC1,8.082,11.35
Cc1cccc2c1N(C)C(=O)C21CC(=O)Nc2c1cnn2C(C)(C)C (configuration not stated),-3.246,7.5
COCc1cnc2n1CCN(C(=O)c1ccc3ccccc3n1)C2C (configuration not stated),-5.125,14
CCc1noc(C2CCCCN2C(=O)c2ccc3c(c2)OCO3)n1 (configuration not stated),0.7618,13.79
O=C(Nc1ccnc(OC2CCOC2)c1)c1ccc(F)cc1Cl (configuration not stated),10.05,-1.37
CC(=O)NCCNC(=O)c1cnc2c(c1)nc(-c1ccccc1Cl)n2C,-18.01,6.557
O=C(CN1CCN(c2ncccn2)[C@@H]2CS(=O)(=O)C[C@@H]21)N1CCCCC1,-18.16,-8.219
CC(C)OCc1ccccc1CNC(=O)C(C)S(=O)(=O)C(C)C (configuration not stated),-7.715,13.83
Cc1cc2occ(CC(=O)N3CCC(O)(CN(C)C)C3)c2cc1Cl (configuration not stated),-9.305,19.2
O=C(C1CCOCC1)N1CCO[C@H]2[C@H](OCc3ccncc3)CC[C@@H]21,10.11,20.51
COCCN(CCOC)C(=O)c1cnn(C)c1C,-6.532,4
Cc1cccc(C)c1OC1CN(Cc2cnc(-c3ccco3)nc2)C1,-29.36,11.29
COc1ccc(Br)c(C(=O)NCC2CC2)c1,-11.84,8.036
O=C(Cc1cn2ccsc2n1)N1CCCC(n2cncn2)C1 (configuration not stated),3.65,8.511
Cc1cc(C(=O)Nc2cc(C3CC3)n[nH]2)c2c(C)nn(C)c2n1,-2.387,9.524
Cn1ccnc1-c1cn(CCCc2csc(N)n2)nn1,1.85,46.99
Cc1ccc(-c2nc(CN3CCOC(Cn4cccn4)C3)co2)cc1 (configuration not stated),1.935,10.53
COCCNC(=O)c1ccccc1-n1cc(CN)cn1,-1.703,8
Cc1csc(CNC(=O)CCCc2cccs2)n1,-21.08,15.79
c1cnc(N2CCC3(CCN(CC4CC4)CC3)CC2)nc1,-2.525,13.73
CCNC(=O)C1CCN(Cn2nc(-c3ccccc3)oc2=O)CC1,-25.31,20.43
COCC1Cn2nnc(-c3cnn(C)c3)c2CN1Cc1ccoc1 (configuration not stated),-5.69,-4.587
Cc1c(C(=O)N2CCN(C)CC2)n(C)c2ccc(Cl)cc12,-10.36,14.29
Cc1cn2c(n1)CCC(NS(=O)(=O)c1sc(C)nc1C)C2 (configuration not stated),-25.98,22.58
Cc1cccc(-c2nc(C)nn2CN2CCC3(CC2)OCCO3)c1,-9.998,-32.88
CC(C)S(=O)(=O)N1CCC(Cc2cccc(C(=O)O)c2)C1 (configuration not stated),4.824,9.735
COc1ccc(S(=O)(=O)NCC(O)c2sccc2C)cc1Cl (configuration not stated),-32.25,13.91
CNC(=O)C1CCN(c2nc3nc[nH]c(=O)c3s2)CC1,-5.481,19.57
O=C(C[C@H]1[C@H]2CN(Cc3ccncc3)C[C@@H]12)N1CCCC1,-55.95,-3.883
CCCc1cc(N2CCCC2Cn2cc(C)cn2)n2ncnc2n1 (configuration not stated),-47.57,15.83
Cc1nc(N2CCOCC2)nc2c1COCC21CCN(CC2CC2)C1 (configuration not stated),32.89,3.947
Cc1cc(C)cc(CCC(=O)N2CCN(c3cc(C)nc(N)n3)CC2)c1,-19.03,26.37

Some entries from above, unchanged:

| structure | Pks13 thioesterase | LiHisRS |
|---|---|---|
| `c1cnc(N2CCC3(CCN(CC4CC4)CC3)CC2)nc1` | -2.525 | 13.73 |
| `Cc1cccc(-c2nc(C)nn2CN2CCC3(CC2)OCCO3)c1` | -9.998 | -32.88 |
| `N#Cc1c(N2CCOCC2)nsc1-c1cccnc1` | -30.53 | 20.35 |
| `CCCc1cc(N2CCCC2Cn2cc(C)cn2)n2ncnc2n1` (configuration not stated) | -47.57 | 15.83 |
| `Cc1c(C(=O)N2CCN(C)CC2)n(C)c2ccc(Cl)cc12` | -10.36 | 14.29 |
| `COCc1cnc2n1CCN(C(=O)c1ccc3ccccc3n1)C2C` (configuration not stated) | -5.125 | 14 |